Measured values taken from article PMC10223906.
No constants are given. Whether binding was seen depends on the method and setting. Binding seen in cells or lysates may run through a third protein. Some results given as binding are weak or reduced against the parent protein; the word gives no strength.

By UniProt entry, the sequences of proteins in these tests, tags left out.
UniProt Q13535: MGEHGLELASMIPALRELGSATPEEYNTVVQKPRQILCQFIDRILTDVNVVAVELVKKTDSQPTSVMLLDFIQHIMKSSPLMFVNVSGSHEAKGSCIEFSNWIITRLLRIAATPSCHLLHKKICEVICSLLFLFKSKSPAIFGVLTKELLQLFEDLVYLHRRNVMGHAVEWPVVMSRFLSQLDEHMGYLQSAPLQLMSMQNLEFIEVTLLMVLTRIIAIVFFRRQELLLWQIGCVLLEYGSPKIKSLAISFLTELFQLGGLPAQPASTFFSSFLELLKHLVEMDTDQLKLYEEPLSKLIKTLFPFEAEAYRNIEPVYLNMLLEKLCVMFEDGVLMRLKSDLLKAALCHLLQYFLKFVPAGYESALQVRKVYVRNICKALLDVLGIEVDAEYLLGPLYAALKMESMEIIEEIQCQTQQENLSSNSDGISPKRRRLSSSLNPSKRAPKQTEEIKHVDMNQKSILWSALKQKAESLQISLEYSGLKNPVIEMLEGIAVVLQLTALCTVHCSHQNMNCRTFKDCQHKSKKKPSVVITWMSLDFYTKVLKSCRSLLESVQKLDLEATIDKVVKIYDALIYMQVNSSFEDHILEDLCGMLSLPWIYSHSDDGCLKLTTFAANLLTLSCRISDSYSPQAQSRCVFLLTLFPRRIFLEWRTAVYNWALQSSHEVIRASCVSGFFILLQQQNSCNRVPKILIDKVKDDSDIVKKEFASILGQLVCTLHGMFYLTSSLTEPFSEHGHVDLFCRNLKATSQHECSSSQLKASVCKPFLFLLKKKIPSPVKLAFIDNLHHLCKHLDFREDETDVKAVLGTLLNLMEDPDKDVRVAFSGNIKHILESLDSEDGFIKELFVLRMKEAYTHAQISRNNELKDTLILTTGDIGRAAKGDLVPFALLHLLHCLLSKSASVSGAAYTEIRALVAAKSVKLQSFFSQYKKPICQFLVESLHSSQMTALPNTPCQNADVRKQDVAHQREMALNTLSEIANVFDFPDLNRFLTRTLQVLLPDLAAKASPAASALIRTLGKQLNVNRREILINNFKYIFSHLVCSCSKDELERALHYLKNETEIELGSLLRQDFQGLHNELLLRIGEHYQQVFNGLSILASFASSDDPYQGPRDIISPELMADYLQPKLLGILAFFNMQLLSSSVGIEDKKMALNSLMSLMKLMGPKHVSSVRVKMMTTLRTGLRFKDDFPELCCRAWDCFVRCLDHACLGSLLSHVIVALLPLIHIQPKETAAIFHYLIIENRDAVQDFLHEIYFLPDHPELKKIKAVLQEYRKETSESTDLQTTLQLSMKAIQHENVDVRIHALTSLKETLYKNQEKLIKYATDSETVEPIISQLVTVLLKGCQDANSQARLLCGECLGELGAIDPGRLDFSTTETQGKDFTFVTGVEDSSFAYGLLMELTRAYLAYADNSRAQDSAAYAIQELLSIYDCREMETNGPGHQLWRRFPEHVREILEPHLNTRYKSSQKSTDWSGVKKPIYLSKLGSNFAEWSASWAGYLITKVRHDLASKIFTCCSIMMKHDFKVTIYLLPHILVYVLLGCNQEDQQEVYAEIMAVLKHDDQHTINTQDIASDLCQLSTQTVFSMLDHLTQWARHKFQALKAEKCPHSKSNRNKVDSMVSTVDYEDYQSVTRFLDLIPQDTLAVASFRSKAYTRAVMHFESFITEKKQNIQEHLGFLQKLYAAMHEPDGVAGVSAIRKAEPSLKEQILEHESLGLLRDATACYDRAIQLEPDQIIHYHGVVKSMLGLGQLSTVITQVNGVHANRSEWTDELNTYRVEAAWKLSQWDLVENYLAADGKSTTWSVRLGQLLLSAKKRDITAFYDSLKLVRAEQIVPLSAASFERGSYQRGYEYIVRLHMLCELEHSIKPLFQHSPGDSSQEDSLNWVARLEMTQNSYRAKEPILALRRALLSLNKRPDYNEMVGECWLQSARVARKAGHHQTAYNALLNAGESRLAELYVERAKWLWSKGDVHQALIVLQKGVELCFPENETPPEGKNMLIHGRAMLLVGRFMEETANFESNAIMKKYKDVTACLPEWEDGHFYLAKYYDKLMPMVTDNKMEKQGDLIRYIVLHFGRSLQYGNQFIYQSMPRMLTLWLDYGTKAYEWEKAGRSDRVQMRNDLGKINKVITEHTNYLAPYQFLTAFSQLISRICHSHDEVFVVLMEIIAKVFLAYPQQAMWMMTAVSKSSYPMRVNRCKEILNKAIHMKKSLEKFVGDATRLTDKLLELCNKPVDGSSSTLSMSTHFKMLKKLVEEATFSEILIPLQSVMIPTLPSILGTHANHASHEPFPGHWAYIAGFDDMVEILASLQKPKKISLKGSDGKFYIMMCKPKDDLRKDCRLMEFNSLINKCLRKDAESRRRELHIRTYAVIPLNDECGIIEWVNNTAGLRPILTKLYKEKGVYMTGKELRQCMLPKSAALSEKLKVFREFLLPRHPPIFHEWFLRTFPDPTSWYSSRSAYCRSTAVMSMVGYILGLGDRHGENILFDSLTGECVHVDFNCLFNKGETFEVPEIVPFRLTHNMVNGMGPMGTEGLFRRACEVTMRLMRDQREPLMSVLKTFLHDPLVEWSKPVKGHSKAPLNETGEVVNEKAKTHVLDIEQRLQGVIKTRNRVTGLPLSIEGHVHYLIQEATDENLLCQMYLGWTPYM

What was measured:
[1] = molecular target: T1, Chk1 (human (endogenous in HCT116, HT29)) (UniProt O14757); assay: co-IP; anti-Chk1 antibody, Dynabeads Protein G, lysates of HCT116 and ATF2-KO clones E5 and F9 treated with 5-FU or DMSO for 48 h; Western blot for p-ATR Thr1989
T1 sequence: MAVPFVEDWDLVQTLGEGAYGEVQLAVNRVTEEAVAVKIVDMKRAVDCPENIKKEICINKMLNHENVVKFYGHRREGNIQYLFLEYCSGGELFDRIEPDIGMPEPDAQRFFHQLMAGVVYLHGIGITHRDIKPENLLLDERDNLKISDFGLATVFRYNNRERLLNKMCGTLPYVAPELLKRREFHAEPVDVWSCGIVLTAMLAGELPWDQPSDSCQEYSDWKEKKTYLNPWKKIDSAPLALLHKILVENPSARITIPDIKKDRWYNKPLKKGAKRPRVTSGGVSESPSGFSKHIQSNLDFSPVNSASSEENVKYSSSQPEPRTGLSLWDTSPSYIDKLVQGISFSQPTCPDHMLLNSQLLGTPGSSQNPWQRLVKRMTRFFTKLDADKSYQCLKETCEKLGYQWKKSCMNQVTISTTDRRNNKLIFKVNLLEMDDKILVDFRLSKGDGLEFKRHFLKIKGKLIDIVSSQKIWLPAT

[2] = molecular target: T2, ATF2 (human (endogenous in HCT116, HT29)) (UniProt P15336); assay: proximity ligation; Duolink PLA with anti-p-ATR (p-Thr1989) and anti-ATF2 E243 on fixed, permeabilised HCT116 cells after 48 h of 5-FU or DMSO
T2 sequence: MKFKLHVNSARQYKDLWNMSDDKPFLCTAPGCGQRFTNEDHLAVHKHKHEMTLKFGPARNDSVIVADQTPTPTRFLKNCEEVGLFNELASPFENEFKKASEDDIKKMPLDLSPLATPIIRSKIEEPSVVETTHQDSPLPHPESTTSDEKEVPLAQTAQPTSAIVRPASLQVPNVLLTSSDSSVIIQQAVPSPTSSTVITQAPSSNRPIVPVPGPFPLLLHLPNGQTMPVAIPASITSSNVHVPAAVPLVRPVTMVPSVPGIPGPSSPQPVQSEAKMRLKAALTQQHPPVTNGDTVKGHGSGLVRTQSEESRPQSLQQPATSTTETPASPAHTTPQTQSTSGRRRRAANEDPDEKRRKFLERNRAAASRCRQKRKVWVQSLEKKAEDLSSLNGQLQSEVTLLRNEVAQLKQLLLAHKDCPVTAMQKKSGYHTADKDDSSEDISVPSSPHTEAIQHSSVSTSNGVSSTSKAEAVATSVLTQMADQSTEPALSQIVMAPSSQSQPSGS

[3] = molecular target: T2, ATF2 (human (endogenous in HCT116, HT29)); assay: co-IP; anti-ATF2 (E243) antibody, Dynabeads Protein G, 500 ug lysate of HCT116 cells treated with 5-FU or DMSO for 48 h; Western blot for p-ATR Thr1989
[4] = molecular target: T2, ATF2 (human (endogenous in HCT116, HT29)); assay: co-IP; anti-ATF2 (E243) antibody, Dynabeads Protein G, lysate of HT29 cells treated with 5-FU or DMSO for 48 h; Western blot for p-ATR Thr1989
[5] = molecular target: T1, Chk1 (human (endogenous in HCT116, HT29)); assay: co-IP; anti-Chk1 antibody, Dynabeads Protein G, lysates of HT29 and ATF2-KO clones B5 and F10, 60 uM 5-FU for 48 h or DMSO; Western blot for p-ATR Thr1989

binding [1]: binds
binding [2]: binds
binding [3]: binds
binding [4]: binds
binding [5]: binds
Substance: p-ATR^Thr1989 (activated ATR) (from UniProt Q13535 1-2644) (enzyme)
